# The list shows a part of the results.
# B1: R2-fiber (Pseudomonas aeruginosa), Q9S576 (protein)
# chain: HHHHHHKVAKDLVVSLAYQVRTEDGVLVDESPVSAPLDYLHGHGSLISGLETALEGHEVGDKFDVAVGANDAYGQYDENLVQRVPKDVFMGVDELQVGMRFLAETDQGPVPVEITAVEDDHVVVDGNHMLAGQNLKFNVEVVAIREATEEELAHGHVHGAHDHHHDHDHDGCCGGHGHDHGHEHGGEGCCGGKGNGGCGCHENLYFQGVTAGMALAATDIPGLDASKLVSGVLAEQRLPVFARGLATAVSNSSDPNTATVPLMLTNHANGPVAGRYFYIQSMFYPDQNGNASQIATSYNATSEMYVRVSYAANPSIREWLPWQRCDIGGSFTKEADGELPGGVNLDSMVTSGWWSQSFTAQAASGANYPIVRAGLLHVYAASSNFIYQTYQAYDGESFYFRCRHSNTWFPWRRMWHGGDFNPSDYLLKSGFYWNALPGKPATFPPSAHNHDVGQLTSGILPLARGGVGSNTAAGARSTIGAGVPATASLGASGWWRDNDTGLIRQWGQVTCPADADASITFPIPFPTLCLGGYANQTSAFHPGTDASTGFRGATTTTAVIRNGYFAQAVLSWEAFGR
# What was measured:
# Experiment in all cases: glycan array binding signal (z-score within array); higher = stronger binding
# Conditions in all cases: glycan notation: IUPAC condensed, linker removed
# [1] = target: GlcNAc(a1-6)Gal(b1-4)GlcNAc
# Outline: (§1)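 The binding signal is a Z-score computed within each array. Data were drawn from 3228 arrays in the Consortium for Functional Glycomics database, restricted to those with a known protein sequence. Scores were averaged over arrays of the same protein sequence at different concentrations or buffers, and over linkers, and negative values can be taken as non-binding.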
# [2] = target: GlcNAc(b1-2)Gal(b1-3)GalNAc
# Outline: as §1
# [3] = target: GlcNAc(b1-2)Man(a1-3)[GlcNAc(b1-2)Man(a1-6)]Man(b1-4)GlcNAc(b1-4)GlcNAc
# Outline: as §1
# [4] = target: GlcNAc(b1-2)Man(a1-3)[GlcNAc(b1-2)Man(a1-6)]Man(b1-4)GlcNAc(b1-4)[Fuc(a1-6)]GlcNAc
# Outline: as §1
# [5] = target: GlcNAc(b1-2)Man(a1-3)[GlcNAc(b1-4)][GlcNAc(b1-2)Man(a1-6)]Man(b1-4)GlcNAc(b1-4)GlcNAc
# Outline: as §1
# [6] = target: GlcNAc(b1-2)Man(a1-3)[GlcNAc(b1-4)][GlcNAc(b1-2)Man(a1-6)]Man(b1-4)GlcNAc(b1-4)[Fuc(a1-6)]GlcNAc
# Outline: as §1
# [7] = target: GlcNAc(b1-2)[GlcNAc(b1-4)]Man(a1-3)[GlcNAc(b1-2)Man(a1-6)]Man(b1-4)GlcNAc(b1-4)GlcNAc
# Outline: as §1
# [8] = target: GlcNAc(b1-2)[GlcNAc(b1-4)]Man(a1-3)[GlcNAc(b1-4)][GlcNAc(b1-2)Man(a1-6)]Man(b1-4)GlcNAc(b1-4)GlcNAc
# Outline: as §1
# [9] = target: GlcNAc(b1-2)[GlcNAc(b1-4)]Man(a1-3)[GlcNAc(b1-4)][GlcNAc(b1-2)[GlcNAc(b1-6)]Man(a1-6)]Man(b1-4)GlcNAc(b1-4)GlcNAc
# Outline: as §1
# [10] = target: GlcNAc(b1-2)[GlcNAc(b1-4)]Man(a1-3)[GlcNAc(b1-4)][GlcNAc(b1-2)[GlcNAc(b1-6)]Man(a1-6)]Man(b1-4)GlcNAc(b1-4)[Fuc(a1-6)]GlcNAc
# Outline: as §1
# [11] = target: GlcNAc(b1-2)[GlcNAc(b1-6)]Man(a1-6)[GlcNAc(b1-2)Man(a1-3)]Man(b1-4)GlcNAc(b1-4)GlcNAc
# Outline: as §1
# [12] = target: GlcNAc(b1-2)[GlcNAc(b1-6)]Man(a1-6)[GlcNAc(b1-2)Man(a1-3)]Man(b1-4)GlcNAc(b1-4)[Fuc(a1-6)]GlcNAc
# Outline: as §1
# [13] = target: GlcNAc(b1-2)[GlcNAc(b1-6)]Man(a1-6)[GlcNAc(b1-4)][GlcNAc(b1-2)Man(a1-3)]Man(b1-4)GlcNAc(b1-4)GlcNAc
# Outline: as §1
# GlcNAc(b1-3)Fuc = target: GlcNAc(b1-3)Fuc
# Outline: as §1
# GlcNAc(b1-3)Gal = target: GlcNAc(b1-3)Gal
# Outline: as §1
# [14] = target: GlcNAc(b1-3)Gal(b1-3)GalNAc
# Outline: as §1
# GlcNAc(b1-3)Gal(b1-4)Glc = target: GlcNAc(b1-3)Gal(b1-4)Glc
# Outline: as §1
# [15] = target: GlcNAc(b1-3)Gal(b1-4)GlcNAc
# Outline: as §1
# [16] = target: GlcNAc(b1-3)Gal(b1-4)GlcNAc(b1-2)Man(a1-3)[GlcNAc(b1-3)Gal(b1-4)GlcNAc(b1-2)Man(a1-6)]Man(b1-4)GlcNAc(b1-4)GlcNAc
# Outline: as §1
# [17] = target: GlcNAc(b1-3)Gal(b1-4)GlcNAc(b1-2)Man(a1-3)[GlcNAc(b1-3)Gal(b1-4)GlcNAc(b1-2)Man(a1-6)]Man(b1-4)GlcNAc(b1-4)[Fuc(a1-6)]GlcNAc
# Outline: as §1
# [18] = target: GlcNAc(b1-3)Gal(b1-4)GlcNAc(b1-2)[GlcNAc(b1-3)Gal(b1-4)GlcNAc(b1-6)]Man(a1-6)[GlcNAc(b1-3)Gal(b1-4)GlcNAc(b1-2)Man(a1-3)]Man(b1-4)GlcNAc(b1-4)GlcNAc
# Outline: as §1
# [19] = target: GlcNAc(b1-3)Gal(b1-4)GlcNAc(b1-3)Gal(b1-4)GlcNAc
# Outline: as §1
# [20] = target: GlcNAc(b1-3)Gal(b1-4)GlcNAc(b1-3)Gal(b1-4)GlcNAc(b1-2)Man(a1-3)[GlcNAc(b1-3)Gal(b1-4)GlcNAc(b1-3)Gal(b1-4)GlcNAc(b1-2)Man(a1-6)]Man(b1-4)GlcNAc(b1-4)GlcNAc
# Outline: as §1
# [21] = target: GlcNAc(b1-3)Gal(b1-4)GlcNAc(b1-3)Gal(b1-4)GlcNAc(b1-2)Man(a1-3)[GlcNAc(b1-3)Gal(b1-4)GlcNAc(b1-3)Gal(b1-4)GlcNAc(b1-2)Man(a1-6)]Man(b1-4)GlcNAc(b1-4)[Fuc(a1-6)]GlcNAc
# Outline: as §1
# [22] = target: GlcNAc(b1-3)Gal(b1-4)GlcNAc(b1-3)Gal(b1-4)GlcNAc(b1-2)[GlcNAc(b1-3)Gal(b1-4)GlcNAc(b1-3)Gal(b1-4)GlcNAc(b1-6)]Man(a1-6)[GlcNAc(b1-3)Gal(b1-4)GlcNAc(b1-3)Gal(b1-4)GlcNAc(b1-2)Man(a1-3)]Man(b1-4)GlcNAc(b1-4)[Fuc(a1-6)]GlcNAc
# Outline: as §1
# [23] = target: GlcNAc(b1-3)Gal(b1-4)GlcNAc(b1-3)Gal(b1-4)GlcNAc(b1-3)Gal(b1-4)GlcNAc(b1-2)Man(a1-3)[GlcNAc(b1-3)Gal(b1-4)GlcNAc(b1-3)Gal(b1-4)GlcNAc(b1-3)Gal(b1-4)GlcNAc(b1-2)Man(a1-6)]Man(b1-4)GlcNAc(b1-4)GlcNAc
# Outline: as §1
# [24] = target: GlcNAc(b1-3)Gal(b1-4)GlcNAc(b1-3)Gal(b1-4)GlcNAc(b1-3)Gal(b1-4)GlcNAc(b1-2)Man(a1-3)[GlcNAc(b1-3)Gal(b1-4)GlcNAc(b1-3)Gal(b1-4)GlcNAc(b1-3)Gal(b1-4)GlcNAc(b1-2)Man(a1-6)]Man(b1-4)GlcNAc(b1-4)[Fuc(a1-6)]GlcNAc
# Outline: as §1
# [25] = target: GlcNAc(b1-3)Gal(b1-4)GlcNAc(b1-3)Gal(b1-4)GlcNAc(b1-3)Gal(b1-4)GlcNAc(b1-2)[GlcNAc(b1-3)Gal(b1-4)GlcNAc(b1-3)Gal(b1-4)GlcNAc(b1-3)Gal(b1-4)GlcNAc(b1-6)]Man(a1-6)[GlcNAc(b1-3)Gal(b1-4)GlcNAc(b1-3)Gal(b1-4)GlcNAc(b1-3)Gal(b1-4)GlcNAc(b1-2)Man(a1-3)]Man(b1-4)GlcNAc(b1-4)[Fuc(a1-6)]GlcNAc
# Outline: as §1
# [26] = target: GlcNAc(b1-3)Gal(b1-4)GlcNAc(b1-3)Gal(b1-4)GlcNAc(b1-3)Gal(b1-4)GlcNAc(b1-3)Gal(b1-4)GlcNAc(b1-2)Man(a1-3)[GlcNAc(b1-3)Gal(b1-4)GlcNAc(b1-3)Gal(b1-4)GlcNAc(b1-3)Gal(b1-4)GlcNAc(b1-3)Gal(b1-4)GlcNAc(b1-2)Man(a1-6)]Man(b1-4)GlcNAc(b1-4)GlcNAc
# Outline: as §1
# [27] = target: GlcNAc(b1-3)Gal(b1-4)GlcNAc(b1-3)Gal(b1-4)GlcNAc(b1-3)Gal(b1-4)GlcNAc(b1-3)Gal(b1-4)GlcNAc(b1-2)Man(a1-3)[GlcNAc(b1-3)Gal(b1-4)GlcNAc(b1-3)Gal(b1-4)GlcNAc(b1-3)Gal(b1-4)GlcNAc(b1-3)Gal(b1-4)GlcNAc(b1-2)Man(a1-6)]Man(b1-4)GlcNAc(b1-4)[Fuc(a1-6)]GlcNAc
# Outline: as §1
binder,measurement,setting,value
B1,glycan array binding signal (z-score),[1],-0.052
same,glycan array binding signal (z-score),[2],-0.689
same,glycan array binding signal (z-score),[3],-0.255
same,glycan array binding signal (z-score),[4],-0.142
same,glycan array binding signal (z-score),[5],-0.205
same,glycan array binding signal (z-score),[6],-0.091
same,glycan array binding signal (z-score),[7],-0.215
same,glycan array binding signal (z-score),[8],0.423
same,glycan array binding signal (z-score),[9],-0.181
same,glycan array binding signal (z-score),[10],-0.347
same,glycan array binding signal (z-score),[11],-0.621
same,glycan array binding signal (z-score),[12],14.6
same,glycan array binding signal (z-score),[13],-0.423
same,glycan array binding signal (z-score),GlcNAc(b1-3)Fuc,-0.211
same,glycan array binding signal (z-score),GlcNAc(b1-3)Gal,-0.736
same,glycan array binding signal (z-score),[14],0.38
same,glycan array binding signal (z-score),GlcNAc(b1-3)Gal(b1-4)Glc,-1.75
same,glycan array binding signal (z-score),[15],-0.499
same,glycan array binding signal (z-score),[16],0.012
same,glycan array binding signal (z-score),[17],-0.218
same,glycan array binding signal (z-score),[18],0.612
same,glycan array binding signal (z-score),[19],0.586
same,glycan array binding signal (z-score),[20],-0.458
same,glycan array binding signal (z-score),[21],1.45
same,glycan array binding signal (z-score),[22],0.519
same,glycan array binding signal (z-score),[23],-0.599
same,glycan array binding signal (z-score),[24],0.444
same,glycan array binding signal (z-score),[25],0.406
same,glycan array binding signal (z-score),[26],-0.528
same,glycan array binding signal (z-score),[27],0.092

# Fetched one by one from the list above, two records:
binder,measurement,setting,value
B1,glycan array binding signal (z-score),[23],-0.599
same,glycan array binding signal (z-score),[12],14.6

# Source: the supplement of paper PMC8728848
